No constants are given. Whether binding was seen depends on the method and setting. Binding seen in cells or lysates may run through a third protein. Here binding means that the protein was enriched with, or labelled near, the bait; the list need not be complete. Where a sequence is shown, tags or fusion partners need not be part of it.
T1: GST-Linker recombinant protein (E. histolytica)
T1 sequence: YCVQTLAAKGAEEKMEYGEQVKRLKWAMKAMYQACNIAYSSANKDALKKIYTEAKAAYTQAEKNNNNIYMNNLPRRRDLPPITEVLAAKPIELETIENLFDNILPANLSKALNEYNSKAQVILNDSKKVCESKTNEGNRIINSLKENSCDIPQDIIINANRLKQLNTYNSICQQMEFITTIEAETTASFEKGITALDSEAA

B1: BAR/SH3 domain protein (EHI_105240) (protein, UniProt C4M128 1-566)
chain: MSIRDALSKKIYQVKTTLNMSEKTIDVEYQRVYNKFKYQEVGLNRLYHLIANNLDLMIQVQHTRIDITDALVQLTDPIVEINSAALKYKTTCEIESMAVSKYKQTVQKVVISPLLELKKMYNILSARHAILKVRHNDCDRFQDQMNNSKGENHVQAKQKYERSLDLYNYLRSELVEDMKNIISTSMLFYNETMIGLIGSDIYEDEQITETRSSLFNLQNSMEKTELTQKTYTITPPDQSCVTEDIVFRKKQNDLHCGKYKLEVCFVKESSAVNITEPEDVNRYPTLKKELPPTKPNQLQQTSRTVPLPKSTPQQQQPKIDDKTSVSKTGSALNIKKDEPNQRRQTQKLQSLTEQKKEQSKPQISTKIEKQENNSIKKVEQQPNSKKRAVKNLKRIENRQTRMLSEIRNGKTQQKDVRHSVLIPKNPENMKKPTQLDPKVRARIEKMKKEQEKDDEFEVVTVDIDSVSNSKTQETPKKKFEIVECDEDTTEESSDVESIELELDEFEKEEETVKLYKAIYSYDATESLELSFKKGDIIKIYSTDDEWFEGEINGKRGFVPSNFLQPL
B2: EhVps35 (protein, UniProt C4M4G0 1-746)
chain: MSKKVQQVDPVTESNQKQNNMAMYTDLMRRAMDHKNYNEALENAYKICEQMNTTNLIPAQYYNLYLVLQQCLSVLDMYLRTDYIADGNDILDLYEEVQTYQCAVARLYLMCIVGSAAVKSKKVGIVVFLKDIIEMSRAVQHPTKGIFLRNYILDCVKSILPSSTTEEPSEGNLINSIEFLLNNFSEMCRLLVRLTQGPQVTEQKVEEQQQLCQVVGKNLMIMSNLDGVSLELYSTNILPRFLEQVLLSRDKVTQDYLYDALIQAFPADYQLATLHLLLHSLGGVVANVGIRRILCSLMERISSYVSANPQIERNMDMFKIFSTHISQIVKTQTLTCEEYVSVYATLAHLVIVWHNEDDAYTQLNAINDNVYDYLTTQQNISIEAANALMSLLQFPFTKYNVLKVIQLRVYPELINLLPYTLRHETHRFVAKKVTEKNHISSTGDIMVLTIRCIETLYQDTKDMTPLNDEELAIDCNLFKTVALSSTVSTESFFDIVREVKNAVKNAGNRRSLMILPTVISMYLRAIPVITDKKDDMFKCVFDILKTLKTLSHFVALKCCVEVGSAAAQAKYSQASYFFETALTMYEDETDIPKEESLKLILSTLASCSLEDDMNEVYIIGCGKFIQLLQDSFQKGKLYCQVSSALFNEQRKVAKQSVSYLQKAVKEAGLCQVAEQNIELLIDILNIYIIHFIRDNSEITAEYINNFANVIKESISQTEIPKLQSYYKETADYIATRTEDKVKQLQL
B3: Rab GTPase (EHI_164900) (enzyme, UniProt C4M1Y3 1-264)
chain: MSDTKETVPTNNEEKLDIEPKKDIKEEVKPEEEHKEEEHKEEKPEEVKPEEVKPEEVKPEEVKPEEEKKNESNEQQKVKVIMVGESSVGKTCCMNRYVSNEFAEQTKATIGVGVGSKEVEVEGKHIKLQIWDTAGQERFATLTGNYFRNAMAAIIMFDVSNKESFENIPNWVEQCCKSDGKHIIFIAGNKIDLENRVVSKEEAEEKAKELKLKYFEVSAKTGDGIEDLFNELIKEIMKTPFCNEQEKEGVELDGQKKQKKGGCC
B4: Small Rab7 GTPase (enzyme, UniProt A0A8U0WQ32 1-197)
chain: MTQQTFKIILVGDSFVGKTSIINRFINAEYSTDYKSTIGSDISQKEIIVDGLLYSLSIWDTAGHEKYQSVIKSFYRGSDFCLLVYDVTNEESFMHLDKWWNEYQQEDVDKAREAVVMVIGNKVDKSQERVITEEQGKSLANERGWLYKETSASENIGIEEIFKELIRSKNPLKNSVKYPQPPPIVEIQLNVHKKQCC
B5: GTP-binding protein (EHI_031410) (enzyme, UniProt C4M4L8 1-190)
chain: MWIWEWFWNLLADLGLAYKTGKMLFLGLDNAGKTTLLHLLKDGKVSQHIPTQQPTMEELVMGNIKFNTYDLGGHTPARKVWKTYCTEVDAVIYIVDCAAPERFGESKKELDSLLNDEMLQNTPFLILGNKIDIPGAVSEAQLREAMGLTHTTGKGNVTCEGIRPIEVFMSSIVNRQGYPEGFKWISQYMK

What follows are binders tested against T1, GST-Linker recombinant protein (E. histolytica) (assay: affinity purification with mass spectrometry; GST-tagged bait (or GST control) bound to glutathione-Sepharose (200 μg) incubated with total trophozoite lysate (2 mg), 4 h, 4 °C; SDS-PAGE, silver stain, bands cut, nano UPLC-QToF; hits with reliability above 95%; only the target purified).

Binder	binding
B1	binds
B2	binds
B3	binds
B4	binds
B5	binds

Source: publication PMC11277477
